No constants are given. Whether binding was seen depends on the method and setting. Some results given as binding are weak or reduced against the parent protein; the word gives no strength.
Molecular target: BCMA antigen purchased from Beijing Yiqiao Shenzhou Ltd. (UniProt Q02223)
Assay: phage ELISA on coated antigen, then SPR of purified single domain antibodies; values not given

Sequences of proteins named here, by UniProt entry; tags and fusion partners are left off. Residues count along the entry.
UniProt Q02223, residues 1-54: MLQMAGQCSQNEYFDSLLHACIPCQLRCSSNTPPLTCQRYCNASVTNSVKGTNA

- binding: binds
B1: BCMA sdAb I (VHH)
VHH: EVQLQASGGGLAQPGGSLRLSCAASGRTFSTYFMAWFRQPPGKGLEYVGGIRWSDGVPHYADSVKGRFTISRDNAKNTVYLQMNSLRAEDTAVYFCASRGIADGSDFGSYGQGTQVTVSS
